Key:
[1] = test system: primary HCC tissue samples; assay: Identification and label-free LC-MS relative quantitation of HLA-presented peptides (presentation profiles/scores), HCC versus normal tissues; set-up: species or system human; key to PeptidePresentation (presentation score): very highly over-presented on tumors compared to a panel of normal tissues (+++); highly over-presented on tumors compared to a panel of normal tissues (++); over-presented on tumors compared to a panel of normal tissues (+); conditions: for PeptidePresentation (presentation score): HCC tumors compared to a panel of normal tissues
[2] = test system: tumor samples of other tumor types; assay: Over-presentation of peptides on additional tumor types versus normal tissues (LC-MS); set-up: species or system human; conditions: for Additional Entities (additional tumor types on which the peptide was found over-presented) / Other relevant organs/diseases (additional tumor types on which the peptide was found over-presented): over-presentation on more than 5% of the measured tumor samples, or presentation on more than 5% with ratio of geometric means tumor vs normal tissues larger than 3
[3] = FIG. 1, only samples on which the peptide was presented

Substance | PeptidePresentation (presentation score) [1] | Additional Entities (additional tumor types on which the peptide was found over-presented) [2] | over-presentation in HCC compared with normal tissues ([1]; FIG. 1 presentation profiles) | number of cancer tissues on which the peptide was presented [2, 3] | number of cell-lines on which the peptide was presented [2, 3] | number of normal tissues on which the peptide was presented [2, 3] | number of primary cultures on which the peptide was presented ([2]; FIG. 1K) | Other relevant organs/diseases (additional tumor types on which the peptide was found over-presented) [2]
151 (HLAKVTAEV; listed as Homo sapiens) [compound 151] | + | SCLC, OC, Urinary bladder cancer |  |  |  |  |  | 
154 (KLTDHLKYV; listed as Homo sapiens) [compound 154] | + | SCLC |  |  |  |  |  | 
156 (LLFPHPVNQV; listed as Homo sapiens) [compound 156] |  | NSCLC, SCLC, OC, Esophageal Cancer, Urinary bladder cancer | over-presentation | 34 | 7 | 1 | 2 | 
161 (RLLDEQFAV; listed as Homo sapiens) [compound 161] | + | SCLC, BRCA |  |  |  |  |  | Brain
164 (RMLIKLLEV; listed as Homo sapiens) [compound 164] | + | SCLC, CRC |  |  |  |  |  | 
169 (SLFEWFHPL; listed as Homo sapiens) [compound 169] | + | NSCLC, Gallbladder Cancer, Bile Duct Cancer |  |  |  |  |  | Kidney, Brain, Colon, Rectum
170 (SLHNGVIQL; listed as Homo sapiens) [compound 170] | + | NSCLC, Urinary bladder cancer, Uterine Cancer, NHL |  |  |  |  |  | Kidney
172 (SLLNFLQHL; listed as Homo sapiens) [compound 172] | + | AML |  |  |  |  |  | Kidney, Colon, Rectum, CLL
173 (SLTSEIHFL; listed as Homo sapiens) [compound 173] | + | Uterine Cancer, NHL |  |  |  |  |  | CLL
176 (TLGQIWDV; listed as Homo sapiens) [compound 176] | + | NSCLC, GC, Melanoma, Urinary bladder cancer, PC |  |  |  |  |  | Brain, Colon, Rectum, Pancreas
177 (VLDEPYEKV; listed as Homo sapiens) [compound 177] | + |  |  |  |  |  |  | Kidney
179 (YIHNILYEV; listed as Homo sapiens) [compound 179] | ++ | CLL, NHL |  |  |  |  |  | Brain
180 (YLGPHIASVTL; listed as Homo sapiens) [compound 180] | ++ | Melanoma |  |  |  |  |  | 
181 (YLLEKFVAV; listed as Homo sapiens) [compound 181] | + | NSCLC, SCLC, CLL, OC, Urinary bladder cancer, AML, NHL |  |  |  |  |  | Colon, Rectum
184 (VVLDGGQIVTV; listed as Homo sapiens) [compound 184] | + |  |  |  |  |  |  | Brain
185 (ALFPALRPGGFQA; listed as Homo sapiens) [compound 185] | ++ | Gallbladder Cancer, Bile Duct Cancer |  |  |  |  |  | 
186 (VLLAQIIQV; listed as Homo sapiens) [compound 186] | + | Melanoma, OC, Uterine Cancer, Gallbladder Cancer, Bile Duct Cancer |  |  |  |  |  | Kidney, Brain, Colon, Rectum
187 (SYPTFFPRF; listed as Homo sapiens) [compound 187] | + | NSCLC, PrC |  |  |  |  |  | Kidney, Brain
189 (AFSPDSHYLLF; listed as Homo sapiens) [compound 189] | +++ | NSCLC, PrC |  |  |  |  |  | Kidney, Brain
190 (RYNEKCFKL; listed as Homo sapiens) [compound 190] | +++ | NSCLC |  |  |  |  |  | 
191 (KYPDIISRI; listed as Homo sapiens) [compound 191] | ++ | NSCLC, GC |  |  |  |  |  | Brain
192 (SYITKPEKW; listed as Homo sapiens) [compound 192] | + | NSCLC |  |  |  |  |  | Kidney, Brain
193 (IYPGAFVDL; listed as Homo sapiens) [compound 193] | +++ | NSCLC |  |  |  |  |  | Brain
194: peptide found in PLK4 (gene looked up) (QYASRFVQL; listed as Homo sapiens) [compound 194] | +++ | NSCLC, GC |  |  |  |  |  | Brain
195 (RYAPPPSFSEF; listed as Homo sapiens) [compound 195] | +++ | NSCLC |  |  |  |  |  | Brain
196 (AYLKWISQI; listed as Homo sapiens) [compound 196] | +++ | NSCLC |  |  |  |  |  | Brain
197 (RWPKKSAEF; listed as Homo sapiens) [compound 197] | + | NSCLC |  |  |  |  |  | Kidney, Brain
198 (LYWSHPRKF; listed as Homo sapiens) [compound 198] | + | NSCLC |  |  |  |  |  | Kidney
